Reference: publication PMC5450233

Chains of the proteins cited; added tags and fusions are not shown. Lines headed by an entry give the natural chain unless they say otherwise; changes in a name come on top. Residues count along the entry.
UniProt P56536, residues 815-955: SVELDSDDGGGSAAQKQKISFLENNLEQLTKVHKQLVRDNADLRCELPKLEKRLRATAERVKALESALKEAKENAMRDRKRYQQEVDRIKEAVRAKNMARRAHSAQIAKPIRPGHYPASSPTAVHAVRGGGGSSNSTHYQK
UniProt O94985: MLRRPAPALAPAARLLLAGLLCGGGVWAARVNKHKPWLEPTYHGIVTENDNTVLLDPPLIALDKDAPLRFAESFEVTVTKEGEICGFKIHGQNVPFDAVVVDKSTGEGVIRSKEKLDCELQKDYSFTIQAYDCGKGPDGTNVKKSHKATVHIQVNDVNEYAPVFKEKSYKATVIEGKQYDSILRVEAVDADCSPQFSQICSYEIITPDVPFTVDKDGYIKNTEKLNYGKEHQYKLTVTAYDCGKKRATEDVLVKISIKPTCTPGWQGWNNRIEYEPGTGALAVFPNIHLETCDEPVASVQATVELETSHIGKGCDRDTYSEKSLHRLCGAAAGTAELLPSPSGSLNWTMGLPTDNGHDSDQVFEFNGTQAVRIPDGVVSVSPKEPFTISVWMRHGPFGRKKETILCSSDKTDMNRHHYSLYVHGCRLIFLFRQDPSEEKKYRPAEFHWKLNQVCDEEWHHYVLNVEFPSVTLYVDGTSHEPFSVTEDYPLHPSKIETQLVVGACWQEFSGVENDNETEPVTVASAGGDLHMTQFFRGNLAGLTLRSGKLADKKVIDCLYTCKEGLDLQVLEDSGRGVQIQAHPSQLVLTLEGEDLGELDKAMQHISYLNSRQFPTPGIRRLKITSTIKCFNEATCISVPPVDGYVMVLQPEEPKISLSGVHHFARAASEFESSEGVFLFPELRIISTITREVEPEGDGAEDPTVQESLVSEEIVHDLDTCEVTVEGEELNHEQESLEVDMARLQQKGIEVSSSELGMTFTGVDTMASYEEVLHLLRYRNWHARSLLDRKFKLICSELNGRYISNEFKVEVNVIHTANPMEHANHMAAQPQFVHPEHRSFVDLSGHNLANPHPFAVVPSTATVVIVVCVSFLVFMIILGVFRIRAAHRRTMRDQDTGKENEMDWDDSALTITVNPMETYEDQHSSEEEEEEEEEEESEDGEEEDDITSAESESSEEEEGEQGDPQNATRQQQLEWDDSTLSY

Experiments:
[1] = target: GST–KHC(815-955) (rat) (UniProt P56536); test: pull-down; GST–KHC tail fusion (0.25 nmol) on glutathione–Sepharose beads incubated 1.5 h with 293T cell extract expressing GFP fusion proteins; 25 mM HEPES pH 7.5, 150 mM NaCl, 0.1% NP-40, Triton X-100; western blot; only the target purified
[2] = target: T1, GST–SKIP(1-310) (UniProt Q8IWE5); test: pull-down; GST–SKIP(1-310) on glutathione beads incubated with extracts of 293T cells expressing KHC (mCit- or HA-tagged) alone, without KLC2; western blot; only the target purified
T1 sequence: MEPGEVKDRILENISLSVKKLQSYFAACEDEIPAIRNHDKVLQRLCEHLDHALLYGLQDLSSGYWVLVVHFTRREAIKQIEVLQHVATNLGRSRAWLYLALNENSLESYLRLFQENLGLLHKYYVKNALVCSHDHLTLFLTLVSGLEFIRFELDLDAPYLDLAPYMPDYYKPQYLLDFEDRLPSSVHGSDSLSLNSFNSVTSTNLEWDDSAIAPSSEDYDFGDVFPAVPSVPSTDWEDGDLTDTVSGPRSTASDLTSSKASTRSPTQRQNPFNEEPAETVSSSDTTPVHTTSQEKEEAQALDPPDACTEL

binding [1] | binding [2] | Substance
no binding |  | GFP–CSTN1(879-971) (from UniProt O94985) (domain or fragment)
 | binds | HA–KHC IAKmut (from UniProt P56536)

Results are given in words; binding and its absence hold for the method and conditions named. In cells and extracts the contact can be indirect. For some assays here: Binding can be weak; no strength is given. For some assays here: Tags and fused reporters may be left off the sequences shown.
